This is an account of results in paper PMC6991692.

Chains of the proteins cited; added tags and fusions are not shown.
UniProt Q8BGW2: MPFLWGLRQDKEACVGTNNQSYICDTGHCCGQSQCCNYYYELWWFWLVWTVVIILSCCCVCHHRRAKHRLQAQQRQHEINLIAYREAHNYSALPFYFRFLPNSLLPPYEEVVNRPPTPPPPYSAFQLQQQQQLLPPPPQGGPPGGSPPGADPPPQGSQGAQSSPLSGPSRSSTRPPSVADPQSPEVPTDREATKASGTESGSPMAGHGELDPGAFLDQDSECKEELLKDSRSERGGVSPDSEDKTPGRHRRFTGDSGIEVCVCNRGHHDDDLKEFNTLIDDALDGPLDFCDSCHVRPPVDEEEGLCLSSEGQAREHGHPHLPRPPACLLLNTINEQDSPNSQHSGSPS
UniProt Q8CFI0: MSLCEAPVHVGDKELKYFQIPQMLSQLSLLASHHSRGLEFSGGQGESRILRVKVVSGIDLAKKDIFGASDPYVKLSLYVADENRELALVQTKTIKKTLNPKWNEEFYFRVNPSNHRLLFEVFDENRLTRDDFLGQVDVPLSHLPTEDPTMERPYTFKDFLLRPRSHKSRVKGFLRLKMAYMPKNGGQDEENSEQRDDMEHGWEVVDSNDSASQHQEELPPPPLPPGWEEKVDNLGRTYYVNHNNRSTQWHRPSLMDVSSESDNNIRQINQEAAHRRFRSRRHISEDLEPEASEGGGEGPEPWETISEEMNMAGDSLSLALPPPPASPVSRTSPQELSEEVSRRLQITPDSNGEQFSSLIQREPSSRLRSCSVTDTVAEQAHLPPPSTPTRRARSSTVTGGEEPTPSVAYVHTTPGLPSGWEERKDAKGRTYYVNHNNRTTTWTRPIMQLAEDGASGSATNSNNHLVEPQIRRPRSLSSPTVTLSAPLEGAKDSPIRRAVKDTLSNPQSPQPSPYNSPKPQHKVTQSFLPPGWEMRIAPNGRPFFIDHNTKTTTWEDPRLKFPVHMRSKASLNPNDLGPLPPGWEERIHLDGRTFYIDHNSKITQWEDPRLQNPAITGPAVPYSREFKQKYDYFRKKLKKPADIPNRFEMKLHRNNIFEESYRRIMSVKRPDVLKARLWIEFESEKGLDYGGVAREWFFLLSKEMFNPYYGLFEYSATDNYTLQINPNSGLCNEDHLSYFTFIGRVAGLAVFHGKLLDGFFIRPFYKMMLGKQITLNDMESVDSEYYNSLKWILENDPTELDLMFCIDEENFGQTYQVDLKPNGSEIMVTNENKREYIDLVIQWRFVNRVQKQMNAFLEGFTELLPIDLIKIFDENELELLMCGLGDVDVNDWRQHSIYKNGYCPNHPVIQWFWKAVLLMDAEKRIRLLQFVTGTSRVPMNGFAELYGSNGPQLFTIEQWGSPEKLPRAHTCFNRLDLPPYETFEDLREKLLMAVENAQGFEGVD
UniProt Q9DBH0: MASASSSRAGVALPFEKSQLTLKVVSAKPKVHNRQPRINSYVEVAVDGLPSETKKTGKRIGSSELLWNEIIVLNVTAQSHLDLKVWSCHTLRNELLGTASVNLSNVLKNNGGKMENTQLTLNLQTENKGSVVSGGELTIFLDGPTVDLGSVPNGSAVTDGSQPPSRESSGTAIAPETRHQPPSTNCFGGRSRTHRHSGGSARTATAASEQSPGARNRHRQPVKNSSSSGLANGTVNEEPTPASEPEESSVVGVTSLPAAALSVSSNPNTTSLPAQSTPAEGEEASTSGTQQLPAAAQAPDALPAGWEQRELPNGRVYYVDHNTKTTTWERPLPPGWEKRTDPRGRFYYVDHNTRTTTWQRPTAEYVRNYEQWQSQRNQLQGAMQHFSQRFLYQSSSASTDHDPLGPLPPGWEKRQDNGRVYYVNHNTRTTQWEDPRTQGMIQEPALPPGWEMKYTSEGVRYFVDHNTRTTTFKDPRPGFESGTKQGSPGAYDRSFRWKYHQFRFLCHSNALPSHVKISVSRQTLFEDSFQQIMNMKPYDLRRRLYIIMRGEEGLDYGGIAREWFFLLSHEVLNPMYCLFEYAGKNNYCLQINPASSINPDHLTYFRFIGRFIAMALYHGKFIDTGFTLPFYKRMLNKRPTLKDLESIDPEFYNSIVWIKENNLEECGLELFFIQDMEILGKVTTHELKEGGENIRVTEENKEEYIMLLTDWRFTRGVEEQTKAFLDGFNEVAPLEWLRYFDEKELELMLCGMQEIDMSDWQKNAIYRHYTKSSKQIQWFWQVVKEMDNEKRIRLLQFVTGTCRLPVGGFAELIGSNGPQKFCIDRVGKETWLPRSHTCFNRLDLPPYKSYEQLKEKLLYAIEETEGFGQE
UniProt Q8C863: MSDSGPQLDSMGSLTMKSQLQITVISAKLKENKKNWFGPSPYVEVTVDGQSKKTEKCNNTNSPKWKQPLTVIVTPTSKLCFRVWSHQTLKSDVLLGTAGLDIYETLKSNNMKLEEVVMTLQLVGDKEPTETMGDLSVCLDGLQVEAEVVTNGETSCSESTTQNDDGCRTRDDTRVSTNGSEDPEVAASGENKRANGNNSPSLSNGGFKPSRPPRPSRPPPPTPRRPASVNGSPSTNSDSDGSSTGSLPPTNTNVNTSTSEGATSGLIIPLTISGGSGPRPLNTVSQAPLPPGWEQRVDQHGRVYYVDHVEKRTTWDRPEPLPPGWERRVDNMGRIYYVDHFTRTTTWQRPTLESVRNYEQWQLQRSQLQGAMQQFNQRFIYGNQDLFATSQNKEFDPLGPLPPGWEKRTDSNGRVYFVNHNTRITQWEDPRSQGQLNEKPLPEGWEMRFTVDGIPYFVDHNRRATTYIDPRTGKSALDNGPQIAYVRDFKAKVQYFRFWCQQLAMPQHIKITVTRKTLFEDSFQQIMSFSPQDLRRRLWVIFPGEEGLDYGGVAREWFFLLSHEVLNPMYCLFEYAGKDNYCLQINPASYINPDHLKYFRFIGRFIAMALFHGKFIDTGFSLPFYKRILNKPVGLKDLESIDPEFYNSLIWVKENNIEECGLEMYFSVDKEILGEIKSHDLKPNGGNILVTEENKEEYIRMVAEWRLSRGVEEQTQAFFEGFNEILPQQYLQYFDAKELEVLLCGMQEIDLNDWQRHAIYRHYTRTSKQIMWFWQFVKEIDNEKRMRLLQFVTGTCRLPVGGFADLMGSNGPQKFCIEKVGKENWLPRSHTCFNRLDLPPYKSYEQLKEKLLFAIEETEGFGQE

These are yes or no findings as the source states them, for the method shown. In cells and extracts the contact can be indirect. A yes stands for co-enrichment or nearness to the bait. Other partners may have been found.

This test has as its target FLAG‐STREP‐tagged WBP1L construct (WW domain binding protein 1‐like) (UniProt Q8BGW2). In words: affinity purification with mass spectrometry; WBP1L‐FLAG‐STREP isolated by tandem purification on anti‐FLAG and Streptactin beads from lysates of transduced Wbp1l−/− immortalized monocyte/macrophage progenitors; cells stimulated for 2 min with CXCL12 or left untreated; two independent analyses.
“NEDD4L, endogenous in immortalized monocyte/macrophage progenitors (from UniProt Q8CFI0 1-1004) (enzyme)”: the binding entry is reported as “binds”.

Regarding “WWP2, endogenous in immortalized monocyte/macrophage progenitors (from UniProt Q9DBH0 1-870) (enzyme)”, the binding result was “binds”.

“ITCH, endogenous (from UniProt Q8C863 1-864) (enzyme)”: the binding entry is listed as “binds”.

On to “WWP1, endogenous (from UniProt Q8BZZ3 1-918) (enzyme)”, for which the binding result is “binds”.
